The experiment deals with heat shock protein 25 (mouse (endogenous in hippocampus)) (UniProt P14602). As to the kind of experiment: co-IP; whole hippocampus of P2X7R KO mice 7 days after KA, lysed in RIPA buffer (50 mM Tris-HCl pH 8.0, 1% Nonidet P-40, 0.5% deoxycholate, 0.1% SDS); HSP25 antibody and protein G Sepharose overnight at 4 °C; Western blot; vehicle-infused. (In general: Immunoblotting shows a protein as a band on a membrane.)

The chains behind the UniProt entries cited, without tags or fusion partners.
UniProt P14602: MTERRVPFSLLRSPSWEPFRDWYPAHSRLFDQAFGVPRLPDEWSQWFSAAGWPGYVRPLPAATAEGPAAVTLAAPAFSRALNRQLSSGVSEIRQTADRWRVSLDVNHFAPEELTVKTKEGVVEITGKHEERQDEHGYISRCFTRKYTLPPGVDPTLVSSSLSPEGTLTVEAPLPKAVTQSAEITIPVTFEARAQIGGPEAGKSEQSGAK
UniProt P34152: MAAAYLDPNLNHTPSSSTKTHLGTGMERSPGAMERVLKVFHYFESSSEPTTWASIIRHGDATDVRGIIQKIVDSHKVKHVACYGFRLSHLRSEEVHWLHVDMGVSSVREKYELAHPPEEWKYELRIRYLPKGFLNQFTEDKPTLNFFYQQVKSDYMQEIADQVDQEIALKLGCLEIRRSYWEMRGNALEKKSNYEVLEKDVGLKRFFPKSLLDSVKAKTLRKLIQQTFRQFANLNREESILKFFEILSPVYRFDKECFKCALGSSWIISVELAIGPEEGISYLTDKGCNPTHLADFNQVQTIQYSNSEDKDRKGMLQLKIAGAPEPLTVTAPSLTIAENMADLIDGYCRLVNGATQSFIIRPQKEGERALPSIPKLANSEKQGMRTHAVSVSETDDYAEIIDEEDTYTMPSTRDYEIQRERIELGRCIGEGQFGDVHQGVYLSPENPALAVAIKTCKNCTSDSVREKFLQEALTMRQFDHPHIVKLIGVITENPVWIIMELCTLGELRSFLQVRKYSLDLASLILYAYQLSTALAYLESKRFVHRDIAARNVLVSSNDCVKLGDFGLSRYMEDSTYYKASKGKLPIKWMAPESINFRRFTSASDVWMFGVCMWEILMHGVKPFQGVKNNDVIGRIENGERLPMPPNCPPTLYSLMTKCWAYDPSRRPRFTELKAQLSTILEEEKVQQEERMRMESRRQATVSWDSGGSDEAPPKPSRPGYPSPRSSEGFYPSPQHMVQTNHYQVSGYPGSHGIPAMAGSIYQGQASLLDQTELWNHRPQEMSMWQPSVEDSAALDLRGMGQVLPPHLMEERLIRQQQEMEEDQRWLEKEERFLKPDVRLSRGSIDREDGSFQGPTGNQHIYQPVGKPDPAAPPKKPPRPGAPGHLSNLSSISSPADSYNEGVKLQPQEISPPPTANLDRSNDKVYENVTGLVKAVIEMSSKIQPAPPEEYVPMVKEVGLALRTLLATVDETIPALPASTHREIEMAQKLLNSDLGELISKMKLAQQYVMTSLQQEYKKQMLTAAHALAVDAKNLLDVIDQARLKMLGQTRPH

No constants are given. Whether binding was seen depends on the method and setting. Binding seen in cells or lysates may run through a third protein.

For the substance “focal adhesion kinase (from UniProt P34152 1-1052)”, the binding result is on record as “no binding”.
